Measured values reported in patent US10011555B2, “Methods of treating Parkinson's disease” (University of Macau, priority 2013, dated 2018).
Entries after “also recorded” stand apart in the source; their conditions may differ. For some assays here: At least one compound was matched to its structure with a doubt left. Some results were stated once for a whole list of compounds, not compound by compound.

Experiments:
[1] = test system: primary cerebellar granule neurons (CGNs); test: Synergistic neuroprotective effect of compound 1 and chrysin on MPP+-induced primary CGNs damage; assay type: cell-based, Sprague-Dawley rats; details: 12 and 25 μM of chrysin, p<0.05
Protocol: Primary cerebellar granule neurons (CGNs) were prepared from 8 days old Sprague-Dawley rats as described (Zhang et al., 2012). […] The cell viability was estimated similarly as in Example 5.
CGNs were also co-treated with compound 1 and chrysin to explore the pharmacological interaction between two compounds.

[2] = test system: primary cerebellar granule neurons (CGNs); test: MPP+-induced primary CGNs damage, cell viability by MTT; assay type: cell-based, Sprague-Dawley rats; details: for neuroprotective effect on MPP+-induced CGNs damage: 6-50 μM, 150 μM MPP+ for 36 hours; for cell viability of CGNs: pretreating with different concentrations, MPP+
Protocol: Primary cerebellar granule neurons (CGNs) were prepared from 8 days old Sprague-Dawley rats, as described in a previous publication (Du, Bales et al. 1997). CGNs cultured in vitro for 7 days were pre-treated with serial concentrations of compounds 1-5 from 6 μM to 50 μM respectively for 2 hours, vehicle group was incubated with 0.1% DMSO. The cells were then exposed to 150 μM MPP^+ for 36 hours. For assessment of the cell viability, 15 μl of 5 mg/ml MTT solution was added to each well containing cell in 100 μl of medium, and the plates were incubated for 4 hours in a humidified incubator at 37° C. After incubation, 100 μl of absolute DMSO was added and incubated for 10 min. Absorbance at 570 nm of each well was measured with a microplate reader.

O=c1cc(-c2ccccc2)oc2cc(O)cc(O)c12 [chrysin, reference compound]
cell viability vs MPP+ alone [1]: significantly enhanced

Cc1ccc(O)c(C(CCC(=O)O)C(C)C)c1 (racemic) [Compound 5, 4-(2-hydroxy-5-methylphenyl)-5-methylhexanoic acid]
neuroprotective effect on MPP+-induced CGNs damage [2]: prevented MPP^+-induced CGNs damage; also recorded: concentration dependent neuroprotective effect | cell viability of CGNs [2]: significantly increased

Cc1ccc(O)c([C@H](CCC(=O)O)C(C)C)c1 [Compound 1, (R)-4-(2-hydroxy-5-methylphenyl)-5-methylhexanoic acid]
neuroprotective effect on MPP+-induced CGNs damage [2]: prevented MPP^+-induced CGNs damage; also recorded: concentration dependent neuroprotective effect | cell viability of CGNs [2]: significantly increased

CC(C)[C@@H](CCC(=O)O)C1=CC(C)(O)CCC1=O (stereo partly drawn) [Compound 3, (4R)-4-(3-hydroxy-3-methyl-6-oxocyclohex-1-enyl)-5-methylhexanoic acid]
neuroprotective effect on MPP+-induced CGNs damage [2]: prevented MPP^+-induced CGNs damage; also recorded: concentration dependent neuroprotective effect | cell viability of CGNs [2]: significantly increased

CC(C)[C@H](CCC(=O)O)C1=CC(C)(O)CCC1=O (stereo partly drawn) [Compound 2, (4S)-4-(3-hydroxy-3-methyl-6-oxocyclohex-1-enyl)-5-methylhexanoic acid]
neuroprotective effect on MPP+-induced CGNs damage [2]: prevented MPP^+-induced CGNs damage; also recorded: concentration dependent neuroprotective effect | cell viability of CGNs [2]: significantly increased

Cc1ccc(O)c([C@@H](CCC(=O)O)C(C)C)c1 [Compound 4, (S)-4-(2-hydroxy-5-methylphenyl)-5-methylhexanoic acid]
neuroprotective effect on MPP+-induced CGNs damage [2]: prevented MPP^+-induced CGNs damage; also recorded: concentration dependent neuroprotective effect | cell viability of CGNs [2]: significantly increased
